Data on one substance can be found in patent publication US20110212105A1.

Results are given in words; binding and its absence hold for the method and conditions named. Binding calls can cover weak binding; strength is not graded here.

The experiment has as its target T1, human alpha-2 macroglobulin activated by methylamine treatment (human) (UniProt P01023).
T1 sequence: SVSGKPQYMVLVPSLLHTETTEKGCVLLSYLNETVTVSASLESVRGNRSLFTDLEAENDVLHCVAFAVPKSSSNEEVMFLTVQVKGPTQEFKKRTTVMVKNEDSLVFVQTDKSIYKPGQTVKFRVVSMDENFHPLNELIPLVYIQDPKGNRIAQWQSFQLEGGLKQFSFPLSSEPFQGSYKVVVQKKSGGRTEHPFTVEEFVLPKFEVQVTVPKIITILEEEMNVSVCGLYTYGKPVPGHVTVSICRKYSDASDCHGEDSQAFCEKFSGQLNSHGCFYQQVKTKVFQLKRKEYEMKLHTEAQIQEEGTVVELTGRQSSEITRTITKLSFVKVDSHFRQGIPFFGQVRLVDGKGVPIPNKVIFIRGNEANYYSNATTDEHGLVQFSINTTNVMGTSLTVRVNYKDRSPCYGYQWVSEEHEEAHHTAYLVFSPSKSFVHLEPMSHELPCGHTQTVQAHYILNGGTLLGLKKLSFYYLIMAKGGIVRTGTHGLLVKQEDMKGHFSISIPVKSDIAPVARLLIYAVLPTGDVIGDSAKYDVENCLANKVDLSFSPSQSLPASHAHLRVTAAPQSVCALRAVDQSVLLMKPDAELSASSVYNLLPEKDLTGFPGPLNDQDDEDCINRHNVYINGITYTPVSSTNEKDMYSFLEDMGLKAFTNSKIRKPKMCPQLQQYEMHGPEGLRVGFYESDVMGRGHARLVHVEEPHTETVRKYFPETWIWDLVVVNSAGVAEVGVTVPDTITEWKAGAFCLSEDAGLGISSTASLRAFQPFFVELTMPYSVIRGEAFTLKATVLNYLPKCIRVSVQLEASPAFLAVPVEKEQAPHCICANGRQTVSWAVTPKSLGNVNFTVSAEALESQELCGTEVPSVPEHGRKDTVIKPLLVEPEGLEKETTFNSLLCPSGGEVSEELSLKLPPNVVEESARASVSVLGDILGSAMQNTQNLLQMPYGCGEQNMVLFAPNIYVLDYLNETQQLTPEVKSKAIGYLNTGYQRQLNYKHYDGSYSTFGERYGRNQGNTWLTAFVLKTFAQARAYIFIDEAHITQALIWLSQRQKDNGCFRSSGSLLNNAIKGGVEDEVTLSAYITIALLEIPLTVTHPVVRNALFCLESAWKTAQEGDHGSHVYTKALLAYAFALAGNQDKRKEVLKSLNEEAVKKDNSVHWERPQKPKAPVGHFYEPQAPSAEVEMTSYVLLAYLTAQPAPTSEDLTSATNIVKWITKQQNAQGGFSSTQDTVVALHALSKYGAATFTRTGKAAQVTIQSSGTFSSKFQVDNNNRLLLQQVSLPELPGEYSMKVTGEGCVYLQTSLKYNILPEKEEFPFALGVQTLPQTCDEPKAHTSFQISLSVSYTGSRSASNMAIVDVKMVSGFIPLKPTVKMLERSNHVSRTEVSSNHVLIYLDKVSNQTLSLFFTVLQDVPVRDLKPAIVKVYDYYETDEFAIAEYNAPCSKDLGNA
The experiment can be described thus: affinity chromatography of plasma fractions on immobilised MeNH2_A2M, specific elution with EDTA at pH 6, SDS-PAGE.

Consider “α-chain of the A2MR receptor purified from human plasma (soluble A2MR)”, for which the binding entry is listed as “binds”.
